# Laboratory results: PubChem BioAssay AID1224830 (NIAID, 2016)
# Test: 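Genes whose knock-down alters the TNF-alpha reporter response to LPS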 (primary screen)
# System: human THP-1 monocytic leukaemia cells, TNF dual-luciferase reporter clone, PMA-differentiated to macrophage-like cells
# Reagents: siRNA pool against human genes, 50 nM
# Duration: LPS for 4 h, given about 3 days after siRNA transfection
# Conditions: bacterial LPS (TLR4 ligand), 10 ng/ml
# Measured: 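Ratio of firefly to renilla light, scaled to the plate median and expressed as a robust z-score per replicate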
# Reading the numbers: TNF reporter robust z-score: higher = stronger TNF reporter response to LPS
# Active means: 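Each well counts as active if its z-score is over 2.8 or under -1.5; controls are left without a call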
# Here is a random part of about 18,000 reagents. In the full data, about 2,900 (16%) got an active call. 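Calls are made per well; low scores hint the gene aids the LPS response, high scores that it dampens it.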 Unmarked entries are inactive. Repeated entries: four replicate wells of each siRNA pool.
gene,TNF reporter robust z-score
ACOX1,-0.54
ACOX1,-0.47
ACOX1,-0.68
ACOX1,-0.08
GLI1,0.04
GLI1,1.69
GLI1,0.19
GLI1,1.55
TAS2R3,0.49
TAS2R3,1.61
TAS2R3,0.31
TAS2R3,1.41
MTHFS,-0.31
MTHFS,1.62
MTHFS,0.43
MTHFS,0.56
CXCL2,-1.5
CXCL2,-0.85
CXCL2,-0.51
CXCL2,-0.57
CHRM3,-0.74
CHRM3,0.51
CHRM3,-0.16
CHRM3,0.28
THAP10,0.27
THAP10,2.85 (active)
THAP10,0.49
THAP10,0.53
TMEM121B,-1.06
TMEM121B,-0.8
TMEM121B,-1.68 (active)
TMEM121B,-0.87
WDR73,0.09
WDR73,-0.14
WDR73,0.31
WDR73,0.22
FCN3,0.95
FCN3,2.96 (active)
FCN3,0.11
FCN3,-0.15
MIA,-0.24
MIA,-0.07
MIA,-0.64
BEST4,-0.49
BEST4,0.13
BEST4,-1.08
BEST4,-0.34
NELL2,-1.19
NELL2,-0.65
NELL2,-0.77
NELL2,-0.45
IGDCC3,-1.67 (active)
IGDCC3,-1.55 (active)
IGDCC3,-1.57 (active)
IGDCC3,-1.56 (active)
THRB,0.21
THRB,-0.38
THRB,-0.97
THRB,0.01
STARD3NL,-0.65
STARD3NL,-0.13
STARD3NL,-0.37
STARD3NL,-0.14
NKIRAS2,1
NKIRAS2,-0.83
NKIRAS2,-1.01
NKIRAS2,-0.71
STON2,0.5
STON2,-0.04
STON2,0.11
STON2,0.47
KHDRBS3,0.26
KHDRBS3,-0.72
KHDRBS3,-0.85
KHDRBS3,-0.67
POLA1,0.27
POLA1,0.04
POLA1,0.22
POLA1,0.92
NUDT13,1.27
NUDT13,0.52
NUDT13,-0.44
NUDT13,0.27

Ordered by “TNF reporter robust z-score” (descending): some entries from above
gene,TNF reporter robust z-score
FCN3,2.96 (active)
THAP10,2.85 (active)
FCN3,0.95
THAP10,0.53
THAP10,0.49
WDR73,0.31
THAP10,0.27
WDR73,0.22
BEST4,0.13
FCN3,0.11
WDR73,0.09
MIA,-0.07
WDR73,-0.14
FCN3,-0.15
MIA,-0.24
BEST4,-0.34
BEST4,-0.49
MIA,-0.64
TMEM121B,-0.8
TMEM121B,-0.87
TMEM121B,-1.06
BEST4,-1.08
TMEM121B,-1.68 (active)

Next records follow.
gene,TNF reporter robust z-score
MSANTD1,0.61
MSANTD1,0.49
MSANTD1,0.06
MSANTD1,-0.94
RAB30,-0.42
RAB30,-0.27
RAB30,0.12
RAB30,-0.07
KDM7A,-1.22
KDM7A,-1.16
KDM7A,-2.45 (active)
KDM7A,-2.25 (active)
SPOUT1,-0.4
SPOUT1,-0.37
SPOUT1,0.54
SPOUT1,0.12
PLA2G12A,-0.41
PLA2G12A,-0.34
PLA2G12A,-0.82
PLA2G12A,1.34
PHIP,0.35
PHIP,0.97
PHIP,0.47
PHIP,1.01
OR13C3,0.34
OR13C3,0.35
OR13C3,1.04
OR13C3,0.51
HNF4A,-0.21
HNF4A,-1.03
HNF4A,-0.92
HNF4A,0.01
UTRN,-0.42
UTRN,-0.16
UTRN,0.96
UTRN,-0.48
MOS,-1.72 (active)
MOS,-1.81 (active)
MOS,-1.77 (active)
MOS,-1.45
KRT75,-0.45
KRT75,0.09
KRT75,0.01
KRT75,-0.05
L2HGDH,-0.69
L2HGDH,-0.71
L2HGDH,-1.03
L2HGDH,-1.59 (active)
KCNK15,-1.11
KCNK15,0.04
KCNK15,0.03
KCNK15,-0.35
OVGP1,0.37
OVGP1,0.31
OVGP1,-0.07
OVGP1,-0.31
POU3F4,0.36
POU3F4,0.99
POU3F4,0.07
POU3F4,1.71
